Experiment [1] has as its target T1, Mu-type opioid receptor (Homo sapiens, UniProt P35372). Briefly: Activity at human cloned mu opioid receptor expressed in CHO cells assessed as inhibition of DAMGO-induced [35S]GTPgammaS binding. It counts as functional, cell-based.
Experiment [2] has as its target T1, Mu-type opioid receptor. Briefly: Activity at human cloned mu opioid receptor expressed in CHO cells by [35S]GTPgammaS binding assay. It counts as functional, cell-based.
Experiment [3] can be described thus: Displacement of [3H]Naltrindole form delta opioid receptor in guinea pig brain. On the set-up: species or system Cavia porcellus. Summed up:
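Guinea pig brain membrane protein incubated with 12 concentrations of compound and 0.2 nM [3H]naltrindole in 50 mM Tris–HCl, pH 7.5, with 10 mM MgCl2 and 0.5 mM PMSF, for 3 h at 25 °C. […] Samples filtered onto polyethyleneimine-soaked glass fiber filters, washed, and counted by scintillation. IC50 came from log-probit fit, and Ki = IC50/(1 + [radioligand]/Kd).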
(In a radioligand displacement assay an active substance lowers the binding of a labelled ligand.)

Protein sequences, listed by entry. Tags and fused reporters are not part of them.
UniProt P35372, whole entry: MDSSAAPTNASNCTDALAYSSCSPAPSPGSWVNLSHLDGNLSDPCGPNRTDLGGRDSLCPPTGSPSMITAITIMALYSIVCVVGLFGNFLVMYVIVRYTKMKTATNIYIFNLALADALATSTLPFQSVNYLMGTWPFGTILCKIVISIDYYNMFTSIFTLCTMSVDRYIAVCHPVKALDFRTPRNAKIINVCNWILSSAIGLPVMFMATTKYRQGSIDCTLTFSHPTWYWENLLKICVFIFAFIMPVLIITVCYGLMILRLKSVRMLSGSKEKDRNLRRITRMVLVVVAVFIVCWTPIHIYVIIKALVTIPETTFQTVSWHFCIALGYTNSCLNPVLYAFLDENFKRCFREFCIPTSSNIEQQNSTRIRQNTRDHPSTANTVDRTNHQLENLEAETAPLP

`CC1C2C(=O)c3ccc(C(N)=O)cc3C1(C)CCN2CC1CC1` (stereo not drawn): on Mu-type opioid receptor [1], the IC50 amounted to 150 nM. At Mu-type opioid receptor [2], this molecule registered an EC50 of 4.2 nM. With `CN1CC[C@]23c4c5ccc(O)c4O[C@H]2[C@@H](O)C=C[C@H]3[C@H]1C5` [MORPHINE], in experiment [3], the affinity, expressed as Ki, was 140 nM.

As usually defined, the IC50 is the concentration needed to halve the response being measured. As usually defined, the EC50 is the concentration at which the effect is half-maximal. The Ki is the dissociation constant of the complex between target and ligand, obtained from inhibition or displacement. High values mean a looser hold on the target, low ones a stronger hold on the target.

Values taken from ChEMBL document CHEMBL1139291, “Syntheses and opioid receptor binding properties of carboxamido-substituted opioids” (Bioorg Med Chem Lett, 2009).
